Results are given in words; binding and its absence hold for the method and conditions named. Some entries that bind do so weakly or less than the wild type.
Assays:
[1] = target: His-tagged ILT4 protein extracellular domain: ILT4-His (human) (UniProt Q8N423); assay: ELISA, coated ILT4-His
[2] = target: His-tagged ILT4 protein extracellular domain: ILT4-His (human) (UniProt Q8N423); assay: screening of chimeric antibodies (ILT4 protein binding, cell binding, ILT4/HLA-G blocking)

By UniProt entry, the sequences of proteins in these tests, tags left out. Where a name states a change or a piece, a line headed by the entry shows the natural chain unless it says otherwise.
UniProt Q8N423: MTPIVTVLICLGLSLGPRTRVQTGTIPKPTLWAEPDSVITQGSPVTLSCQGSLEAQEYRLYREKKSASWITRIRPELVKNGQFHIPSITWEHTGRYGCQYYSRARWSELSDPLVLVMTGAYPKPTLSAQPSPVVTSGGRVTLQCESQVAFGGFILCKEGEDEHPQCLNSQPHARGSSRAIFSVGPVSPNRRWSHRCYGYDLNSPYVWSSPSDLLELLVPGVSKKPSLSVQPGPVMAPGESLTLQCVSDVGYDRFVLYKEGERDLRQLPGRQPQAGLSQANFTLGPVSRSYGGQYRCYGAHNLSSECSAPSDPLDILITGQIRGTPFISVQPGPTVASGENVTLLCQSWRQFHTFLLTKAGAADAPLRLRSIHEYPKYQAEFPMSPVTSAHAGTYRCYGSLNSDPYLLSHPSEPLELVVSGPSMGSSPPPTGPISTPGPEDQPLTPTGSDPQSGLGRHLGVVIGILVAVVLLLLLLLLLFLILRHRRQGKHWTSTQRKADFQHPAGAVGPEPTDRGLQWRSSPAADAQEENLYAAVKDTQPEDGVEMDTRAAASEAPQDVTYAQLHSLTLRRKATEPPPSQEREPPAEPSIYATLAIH

B1: chimeric antibody ChP1-E11 (antibody, human IgG4 S228P, kappa, F234A L235A, V domains shown)
VH: EVQLQQSGPELVKPGASVKMSCQASGYTFTDYSIHWVKQSRGASLEWIGYINPNNGVTNYNQKFKGKATLTVNKSSSTAYMELRSLTSEDSAVYYCAREGDSVTTIVVHWYFDVGGTGTTVTVSS
VL: DIQMTQSPASLSVSLGETVTITCRASENIYSNLVWYQQKQGKFPQLLVYAAINLVDGVPSRFSGSGSGTQYSLKINSLQSEDFGSYYCQQFWDTPLTFGAGTKLEIKR
binding [1]: binds | binding [2]: binds
